# Test results taken from patent US20070116736A1, “Local vascular delivery of PI3 kinase inhibitors alone or in combination with sirolimus to prevent restinosis following vascular injury” (priority 2005, published 2007).
# For some of these results: At least one read-out could not be matched to a standard name with certainty. For at least one compound, name, drawing or mass did not settle the structure.
# How the values were obtained:
# [1] = content recovery of sirolimus/cilostazol coated stents; format: physicochemical; settings: 100 μg cilostazol outer layer
# neointimal hyperplasia = assay: porcine studies with rapamycin-coated stents; format: in vivo; settings: porcine and rabbit models; 35-430 ug/15-18 mm coronary stent; maximal at about twenty-eight to thirty days
# [2] = in vitro release of sirolimus and cilostazol from stent coating; format: physicochemical; settings: single layer coating of FIG. 83
# [3] = drug concentration in liquid formulations by liquid chromatography / HPLC assay; format: physicochemical
# [4] = system: monocyte chemotactic protein (MCP-1); assay: cytokine levels in vascular tissue after delivery from a stent; format: in vivo; settings: delivered from a stent
# [5] = stent of FIG. 75: 180 μg sirolimus inner layer, 200 μg BMA overcoat
# [6] = stent of FIG. 77: 180 μg sirolimus inner layer, 100 μg BMA overcoat
structure (smiles),measurement,setting,value
"O=C1CCc2cc(OCCCCc3nnnn3C3CCCCC3)ccc2N1 [cilostazol, 6[4-(1-cyclohexyl-1H-tetrazol-5-yl)-butoxy]-3,4-dihydro-2-(1H)-quinolinone]","content recovery, percent of nominal drug content",[1]; [5],98%
same,"content recovery, percent of nominal drug content",[1]; [6],98%
CO[C@H]1C[C@@H]2CC[C@@H](C)[C@@](O)(O2)C(=O)C(=O)N2CCCC[C@H]2C(=O)O[C@H]([C@H](C)C[C@@H]2CC[C@@H](O)[C@H](OC)C2)CC(=O)[C@H](C)/C=C(\C)[C@@H](O)[C@@H](OC)C(=O)[C@H](C)C[C@H](C)/C=C/C=C/C=C/1C [rapamycin],peak reduction in neointimal hyperplasia,neointimal hyperplasia,fifty to fifty-five
same,in vitro release from coating,[2],~35%
same,"content recovery, percent of nominal drug content",[1]; [5],85%
same,"content recovery, percent of nominal drug content",[1]; [6],85%
same,dilution with water before sirolimus starts to precipitate out of solution,[3]; PEG 200 formulation,five to ten
same,sirolimus concentration in the final solution (HPLC assay),"[3]; Vitamin E TPGS, water, ethanol less than two percent",15 mg/mL
same,concentration of sirolimus achieved in liquid formulation,"[3]; ethanol two percent, water twenty-five percent, PEG 200 seventy-five percent",4000 µg/mL
same,monocyte chemotactic protein (MCP-1) levels in the vascular wall,[4],highly effective in reducing
